Reference: PubChem BioAssay AID1224830 (NIAID, 2016)
In all, the deposit lists about 18,000 reagents; below is a part drawn at random. In the full data, about 2,900 (16%) are marked active. 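Calls are made per well; low scores hint the gene aids the LPS response, high scores that it dampens it.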 A number with no mark means an inactive call. Repeated entries: four replicate wells of each siRNA pool.

Purpose: 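Regulators of TLR4 signalling towards TNF-alpha in macrophage-like cells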 (primary screen)
Cell system: human THP-1 monocytic leukaemia cells, TNF dual-luciferase reporter clone, PMA-differentiated to macrophage-like cells
Reagent: siRNA pool against human genes, 50 nM
Time to read-out: LPS for 4 h, given about 3 days after siRNA transfection
Challenge: bacterial LPS (TLR4 ligand), 10 ng/ml
Detection: 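TNF firefly reporter luminescence divided by renilla, normalised to the plate median, then turned into a robust z-score for each replicate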
Scale: TNF reporter robust z-score: higher = stronger TNF reporter response to LPS
Active means: 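a well is active when its z-score exceeds 2.8 or falls below -1.5; control wells carry no call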

target gene | TNF reporter robust z-score
LMX1A (LIM homeobox transcription factor 1 alpha) | -1.36
LMX1A (LIM homeobox transcription factor 1 alpha) | -1.33
LMX1A (LIM homeobox transcription factor 1 alpha) | -0.74
LMX1A (LIM homeobox transcription factor 1 alpha) | -1.01
CD300E (CD300e molecule) | 0.92
CD300E (CD300e molecule) | 0.31
CD300E (CD300e molecule) | -0.23
CD300E (CD300e molecule) | 0.22
ABHD10 (abhydrolase domain containing 10, depalmitoylase) | 1.72
ABHD10 (abhydrolase domain containing 10, depalmitoylase) | 6.32 (active)
ABHD10 (abhydrolase domain containing 10, depalmitoylase) | 2.14
ABHD10 (abhydrolase domain containing 10, depalmitoylase) | 2.47
ZFP14 (ZFP14 zinc finger protein) | 0.14
ZFP14 (ZFP14 zinc finger protein) | 0.58
ZFP14 (ZFP14 zinc finger protein) | 1.68
ZFP14 (ZFP14 zinc finger protein) | 0.1
C1QTNF8 (C1q and TNF related 8) | -0.47
C1QTNF8 (C1q and TNF related 8) | 0.86
C1QTNF8 (C1q and TNF related 8) | 0.74
C1QTNF8 (C1q and TNF related 8) | -0.39
FGD5 (FYVE, RhoGEF and PH domain containing 5) | 3.3 (active)
FGD5 (FYVE, RhoGEF and PH domain containing 5) | 0.44
FGD5 (FYVE, RhoGEF and PH domain containing 5) | 1.06
FGD5 (FYVE, RhoGEF and PH domain containing 5) | 0.5
PSMD7 (proteasome 26S subunit, non-ATPase 7) | -1.71 (active)
PSMD7 (proteasome 26S subunit, non-ATPase 7) | -1.5
PSMD7 (proteasome 26S subunit, non-ATPase 7) | -1.69 (active)
PSMD7 (proteasome 26S subunit, non-ATPase 7) | -1.19
NES (nestin) | 0.06
NES (nestin) | 0.1
NES (nestin) | -0.34
NES (nestin) | -0.07
MEF2C (myocyte enhancer factor 2C) | -0.81
MEF2C (myocyte enhancer factor 2C) | -0.86
MEF2C (myocyte enhancer factor 2C) | -0.65
MEF2C (myocyte enhancer factor 2C) | 0.49
HESX1 (HESX homeobox 1) | 0.93
HESX1 (HESX homeobox 1) | 1.44
HESX1 (HESX homeobox 1) | 1.39
HESX1 (HESX homeobox 1) | 2.77
PPCS (phosphopantothenoylcysteine synthetase) | -0.19
PPCS (phosphopantothenoylcysteine synthetase) | -0.08
PPCS (phosphopantothenoylcysteine synthetase) | 0.22
PPCS (phosphopantothenoylcysteine synthetase) | 0.7
IGFLR1 (IGF like family receptor 1) | 2.05
IGFLR1 (IGF like family receptor 1) | 7.49 (active)
IGFLR1 (IGF like family receptor 1) | 3.1 (active)
IGFLR1 (IGF like family receptor 1) | 1.95
ABCA4 (ATP binding cassette subfamily A member 4) | -0.38
ABCA4 (ATP binding cassette subfamily A member 4) | 1.18
ABCA4 (ATP binding cassette subfamily A member 4) | 0.2
ABCA4 (ATP binding cassette subfamily A member 4) | -1.01
ABCB11 (ATP binding cassette subfamily B member 11) | -0.51
ABCB11 (ATP binding cassette subfamily B member 11) | -1.17
ABCB11 (ATP binding cassette subfamily B member 11) | -0.97
ABCB11 (ATP binding cassette subfamily B member 11) | 1.75

Called active (from the list above):
target gene | TNF reporter robust z-score
ABHD10 (abhydrolase domain containing 10, depalmitoylase) | 6.32 (active)
FGD5 (FYVE, RhoGEF and PH domain containing 5) | 3.3 (active)
PSMD7 (proteasome 26S subunit, non-ATPase 7) | -1.71 (active)
PSMD7 (proteasome 26S subunit, non-ATPase 7) | -1.69 (active)
IGFLR1 (IGF like family receptor 1) | 7.49 (active)
IGFLR1 (IGF like family receptor 1) | 3.1 (active)

The list goes on:
target gene | TNF reporter robust z-score
PRKAB2 (protein kinase AMP-activated non-catalytic subunit beta 2) | -0.14
PRKAB2 (protein kinase AMP-activated non-catalytic subunit beta 2) | 1.11
PRKAB2 (protein kinase AMP-activated non-catalytic subunit beta 2) | 0.56
PRKAB2 (protein kinase AMP-activated non-catalytic subunit beta 2) | -0.1
PHACTR4 (phosphatase and actin regulator 4) | -0.45
PHACTR4 (phosphatase and actin regulator 4) | 0.33
PHACTR4 (phosphatase and actin regulator 4) | -1.18
PHACTR4 (phosphatase and actin regulator 4) | 0.15
SEC14L4 (SEC14 like lipid binding 4) | 1.68
SEC14L4 (SEC14 like lipid binding 4) | 2.21
SEC14L4 (SEC14 like lipid binding 4) | 3.16 (active)
SEC14L4 (SEC14 like lipid binding 4) | 1.62
AP4S1 (adaptor related protein complex 4 subunit sigma 1) | 3.16 (active)
AP4S1 (adaptor related protein complex 4 subunit sigma 1) | -0.33
AP4S1 (adaptor related protein complex 4 subunit sigma 1) | 0.12
AP4S1 (adaptor related protein complex 4 subunit sigma 1) | -0.3
TRMT61B (tRNA methyltransferase 61B) | 1.51
TRMT61B (tRNA methyltransferase 61B) | 0.18
TRMT61B (tRNA methyltransferase 61B) | 1.41
TRMT61B (tRNA methyltransferase 61B) | 0.6
HDAC8 (histone deacetylase 8) | 0.36
HDAC8 (histone deacetylase 8) | 0.27
HDAC8 (histone deacetylase 8) | 0.71
HDAC8 (histone deacetylase 8) | 0.08
TNN (tenascin N) | -1.29
TNN (tenascin N) | -0.56
TNN (tenascin N) | -0.85
TNN (tenascin N) | -1.36
DUS4L (dihydrouridine synthase 4 like) | 0.37
DUS4L (dihydrouridine synthase 4 like) | -0.35
DUS4L (dihydrouridine synthase 4 like) | -0.36
DUS4L (dihydrouridine synthase 4 like) | -0.9
CHPF (chondroitin polymerizing factor) | 3.28 (active)
CHPF (chondroitin polymerizing factor) | 0.05
CHPF (chondroitin polymerizing factor) | 1
CHPF (chondroitin polymerizing factor) | 3.21 (active)
MS4A6A (membrane spanning 4-domains A6A) | 1.17
MS4A6A (membrane spanning 4-domains A6A) | 3.31 (active)
MS4A6A (membrane spanning 4-domains A6A) | 0.33
MS4A6A (membrane spanning 4-domains A6A) | 2.72
TAS2R1 (taste 2 receptor member 1) | 0.24
TAS2R1 (taste 2 receptor member 1) | 0.05
TAS2R1 (taste 2 receptor member 1) | 0.47
TAS2R1 (taste 2 receptor member 1) | 0.08
ATP6V0A2 (ATPase H+ transporting V0 subunit a2) | 0.68
ATP6V0A2 (ATPase H+ transporting V0 subunit a2) | 5.46 (active)
ATP6V0A2 (ATPase H+ transporting V0 subunit a2) | 1.64
ATP6V0A2 (ATPase H+ transporting V0 subunit a2) | 2.29
MS4A2 (membrane spanning 4-domains A2) | -0.46
MS4A2 (membrane spanning 4-domains A2) | 0.51
MS4A2 (membrane spanning 4-domains A2) | 1.77
MS4A2 (membrane spanning 4-domains A2) | 0.74
OSR1 (odd-skipped related transcription factor 1) | -0.75
OSR1 (odd-skipped related transcription factor 1) | 0.04
OSR1 (odd-skipped related transcription factor 1) | 0.69
OSR1 (odd-skipped related transcription factor 1) | -0.17
